PubChem BioAssay AID1159584 | Peter MacCallum Cancer Centre, 2016
Purpose: 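Genes that CDH1-null MCF10A cells selectively depend on to survive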 (primary screen). Cell system: human MCF10A breast epithelial cells, parental and CDH1-null. Knock-down reagent: siRNA against human genes. Read-out: 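Cell viability by CellTiter-Glo ATP luminescence, each line scaled to the mean of mock wells across plates, then CDH1-null over parental ratio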. Reading the numbers: CDH1-null / parental viability ratio: higher = CDH1-null cells survive relatively better than parental.
Here is an unselected part of about 18,000 deposited reagents. Not all columns of the deposit are shown. Not given: the amount of reagent, the time to read-out.

RHPN1 (rhophilin Rho GTPase binding protein 1) [SID152152114] | CDH1-null / parental viability ratio = 0.92
ARHGAP11A (Rho GTPase activating protein 11A) [SID134324729] | CDH1-null / parental viability ratio = 0.88
LAT2 (linker for activation of T cells family member 2) [SID152149699] | CDH1-null / parental viability ratio = 0.77
KLK1 (kallikrein 1) [SID135621100] | CDH1-null / parental viability ratio = 1.08
FKBPL (FKBP prolyl isomerase like) [SID134323056] | CDH1-null / parental viability ratio = 0.8
GPAT2 (glycerol-3-phosphate acyltransferase 2, mitochondrial) [SID152151554] | CDH1-null / parental viability ratio = 1.45
PAX9 (paired box 9) [SID152147881] | CDH1-null / parental viability ratio = 1.13
BEST3 (bestrophin 3) [SID135623128] | CDH1-null / parental viability ratio = 1.29
CENPS (centromere protein S) [SID135625267] | CDH1-null / parental viability ratio = 1.21
RNASE1 (ribonuclease A family member 1, pancreatic) [SID152153661] | CDH1-null / parental viability ratio = 0.95
ANO5 (anoctamin 5) [SID134326647] | CDH1-null / parental viability ratio = 1.24
COA4 (cytochrome c oxidase assembly factor 4 homolog) [SID134324754] | CDH1-null / parental viability ratio = 1.03
ZNF595 (zinc finger protein 595) [SID152151891] | CDH1-null / parental viability ratio = 1.19
COMMD3 (COMM domain containing 3) [SID152155344] | CDH1-null / parental viability ratio = 0.85

Targets above whose gene name begins with R or r:
RHPN1 (rhophilin Rho GTPase binding protein 1) [SID152152114] | CDH1-null / parental viability ratio = 0.92
RNASE1 (ribonuclease A family member 1, pancreatic) [SID152153661] | CDH1-null / parental viability ratio = 0.95
